Laboratory results taken from publication PMC3438722, “DNA Binding in High Salt: Analysing the Salt Dependence of Replication Protein A3 from the Halophile Haloferax volcanii” (Archaea, 2012).
For part of these data: No signal at the amounts used counts as a negative. Tags and fusion partners may be left off the protein sequences shown. For part of these data: Construct, isoform or probe ends are uncertain for at least one entry.

Columns and labels:
[1] = target: T1, HvRPA3 full length (Haloferax volcanii DS2 (wild-type)) (UniProt D4GZS1); test: analytical SEC; settings: 0.2 M KCl; SEC: 50 mM HEPES pH 7.0, 0.2, 1 or 3 M KCl; recombinant protein; residues 1-311; protein details: N-terminal 6xHis; single-stranded DNA
T1 sequence (looked up): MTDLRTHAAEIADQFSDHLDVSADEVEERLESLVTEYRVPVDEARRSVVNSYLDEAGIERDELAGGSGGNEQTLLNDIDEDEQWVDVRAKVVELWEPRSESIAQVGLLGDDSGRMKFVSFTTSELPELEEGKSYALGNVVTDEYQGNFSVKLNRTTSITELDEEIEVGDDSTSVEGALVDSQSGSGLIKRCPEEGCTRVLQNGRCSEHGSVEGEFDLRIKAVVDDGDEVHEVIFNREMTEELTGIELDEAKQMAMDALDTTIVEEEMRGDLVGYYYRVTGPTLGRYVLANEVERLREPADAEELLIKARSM

[2] = target: T2, HvRPA3-NTD (OB-fold) (Haloferax volcanii DS2 (wild-type)) (UniProt D4GZS1); test: analytical SEC; settings: 0.2 M KCl; SEC: 50 mM HEPES pH 7.0, 0.2, 1 or 3 M KCl; recombinant protein; residues 1-163; protein details: N-terminal 6xHis; single-stranded DNA
T2 sequence (looked up): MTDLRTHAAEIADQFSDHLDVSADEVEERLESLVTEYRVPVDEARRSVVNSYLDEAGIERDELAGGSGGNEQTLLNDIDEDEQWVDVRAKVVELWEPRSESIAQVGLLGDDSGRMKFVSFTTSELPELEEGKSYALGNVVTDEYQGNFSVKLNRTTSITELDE

[3] = target: T2, HvRPA3-NTD (OB-fold) (Haloferax volcanii DS2 (wild-type)); test: fluorescence anisotropy; settings: 3 M KCl, Hill 1.1 ± 0.2; FA: 50 mM HEPES pH 7.0, 10% glycerol, 0.03% BSA, 20 nM Cy5-oligo, 0.2, 1 or 3 M KCl, room temperature 10 min; recombinant protein; residues 1-163; protein details: N-terminal 6xHis; label: 5' Cy5; single-stranded DNA

GCGTGTGTGGTGGTGTGC [18mer ssDNA (SEC)]: no binding [1]; no binding [2].
With “GCGTGTGTGGTGGTGTGC [Cy5-18mer ssDNA (FA)]” the Kd [3] was 212 nM.
